Legend:
[1] = tested on: glioblastoma (U-87 MG) cells; test: MTT proliferation assay, glioblastoma; type: cell-based; details: Homo sapiens, Tumor Cell Glioblastoma (U-87 MG), 120 hours, read-out: Anti-proliferative IC-50
Method: (§1) Cells were maintained in various media as follows: A549, LoVo and PC-3 (Ham's F12K medium with 2 mM L-glutamine and 1.5 g/L sodium bicarbonate), MIA PaCa-2 (Dulbecco's modified Eagle's medium with 4 mM L-glutamine and 4.5 g/L glucose), U87-MG (MEM+Earle's BSS). Medium for each cell line was supplemented with 10% FBS and […] Penecillin/Streptomycin. All cells were grown in incubators set at 37° C., 5% CO2. Thiazolyl Blue Tetrazolium Bromide (MTT) based proliferation assays were performed to assess the anti-proliferative activities of the compounds on these cells. Cells were seeded in 96 well plates at a density of 750 cells/well 24 hours prior to compound treatment. The cells were incubated with varying concentrations of compounds for 120 hours. […] Drug treatment was performed in 5 replicate wells. Background absorbance was established by wells containing medium but no cells. Vehicle (DMSO) only was used as control. MTT (Sigma-Aldrich, St. Louis, Mo.) was added to each well at a final concentration of 0.5 mg/ml. Following a 2 hour incubation at 37° C., medium in the wells was replaced with 0.15 ml DMSO. The plates were agitated for 15 min using a microtiter plate shaker.

[2] = tested on: PAK4:Cofilin; test: Protein-fragment complementation assay PAK4:Cofilin; type: cell-based, human; details: hit in PAK4/CFL assay; drugs screened at 10 micromolar
Text: (§2) To construct dynamic assays for protein-protein complexes, we used a protein-fragment complementation assay strategy (PCAs) in intact human cells. (A variety of other suitable assays, and reporter options, are described in detail below.) The principle of PCA is that complementary polypeptide fragments (F[1] and F[2]) of a reporter protein or enzyme will fold into an active form only if fused to two proteins which interact and bring the complementary fragments of the reporter protein into proximity. Reconstitution of the fragments of the reporter protein generates a fluorescent signal that can be quantified in intact cells, and the amount of the signal is proportional to the amount of the protein-protein complex used in constructing the assay. Given a suitable reporter type, the subcellular location of the complex can also be measured.
(§3) Reporter fragments for PCA were generated by oligonucleotide synthesis (Blue Heron Biotechnology, Bothell, Wash.), starting with the sequence of yellow fluorescent protein (YFP). First, oligonucleotides coding for polypeptide fragments YFP[1]and YFP[2] […] Next, PCR mutagenesis was used to generate the mutant fragments IFP[1] and IFP[2]. The IFP[1] fragment corresponds to YFP[1]-(F46L, F64L, M153T) and the IFP[2] fragment corresponds to YFP[2]-(V163A, S175G). […]

[3] = tested on: CDC42:PAK4 complexes; test: Protein-fragment complementation assay CDC42:PAK4; type: cell-based, human; details: hit in CDC42/PAK4 assay; drugs screened at 10 micromolar
Text: as §2, §3

[4] = tested on: pancreatic carcinoma (MIA PaCa-2) cells; test: MTT proliferation assay, pancreatic; type: cell-based; details: Homo sapiens, Tumor Cell Pancreatic (MIA PaCa-2), 120 hours, read-out: Anti-proliferative IC-50
Method: as §1

IC50 [1]: 13.5 µM
IC50 [4]: 11.1 µM
Structure (SMILES): C(=C\c1ccccc1)/CN1CCN(C(c2ccccc2)c2ccccc2)CC1 [Cinnarizine]
Assay activity [2]: PAK4/CFL
Assay activity [3]: CDC42/PAK4,

Reference: US20060094059A1, “Methods for identifying new drug leads and new therapeutic uses for known drugs” (Odyssey Thera, Inc., priority 2004, published 2006)
